Construct, isoform or probe ends are uncertain for at least one entry.

The chains behind the UniProt entries cited, without tags or fusion partners. Residues count along the entry.
UniProt P08515, 2-218: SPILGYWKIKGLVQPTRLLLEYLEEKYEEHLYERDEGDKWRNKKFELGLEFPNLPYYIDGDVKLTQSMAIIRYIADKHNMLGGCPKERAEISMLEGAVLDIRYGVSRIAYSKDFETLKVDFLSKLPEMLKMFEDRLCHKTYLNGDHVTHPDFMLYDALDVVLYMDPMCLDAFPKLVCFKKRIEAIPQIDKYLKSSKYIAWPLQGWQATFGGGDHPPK

The target in this series is GST fusion protein (GST N-terminal fusion partner with unspecified protein of interest) (Schistosoma japonicum) (UniProt P08515). Kind of series: SELEX. To be noted: purified recombinant protein.
For “GGUAGAUACGAUGGACUAACUGCGCAAAUUACUCGUAUUAGCCGACAUGACGCGCAGCCAA [No. 5 clone RNA aptamer (sequence II)]”, the selection result was “selected”. With “GGUAGAUACGAUGGAUACCGAAAAAUUAGUGUCGUUGACUGCAACAUGACGCGCAGCCAA [No. 26 clone RNA aptamer (sequence III)]”, the selection result is “selected”. For “GGUAGAUACGAUGGAUGGUUGUGUAAAGGUGGUCGUAUCCGCCGACAUGACGCGCAGCCAA [No. 3 clone RNA aptamer (sequence I)]”, the selection result is “selected”.

These data come from US20100036106.
